Where two headings read alike, the source gives them in different places. No constants are given. Whether binding was seen depends on the method and setting. Binding seen in cells or lysates may run through a third protein. Some results given as binding are weak or reduced against the parent protein; the word gives no strength. For some of these results: Tags and fused reporters may be left off the sequences shown.
T1: FLAG-tagged ZFC3H1 residues 600-990 (UniProt O60293)
T1 sequence: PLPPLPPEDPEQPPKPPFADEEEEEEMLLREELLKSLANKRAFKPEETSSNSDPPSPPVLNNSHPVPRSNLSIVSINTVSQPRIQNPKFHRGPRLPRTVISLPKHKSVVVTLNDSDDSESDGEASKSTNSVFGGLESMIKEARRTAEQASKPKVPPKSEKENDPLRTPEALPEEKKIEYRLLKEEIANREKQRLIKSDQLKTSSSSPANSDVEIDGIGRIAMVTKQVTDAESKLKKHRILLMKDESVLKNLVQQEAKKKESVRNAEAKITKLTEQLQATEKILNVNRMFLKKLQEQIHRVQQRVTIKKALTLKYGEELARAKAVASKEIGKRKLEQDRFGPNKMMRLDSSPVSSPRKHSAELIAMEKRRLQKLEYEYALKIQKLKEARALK

T2: FLAG-tagged ZFC3H1 N-term SLiM mutant (N-term ΔSLiM) (UniProt O60293)
T2 sequence: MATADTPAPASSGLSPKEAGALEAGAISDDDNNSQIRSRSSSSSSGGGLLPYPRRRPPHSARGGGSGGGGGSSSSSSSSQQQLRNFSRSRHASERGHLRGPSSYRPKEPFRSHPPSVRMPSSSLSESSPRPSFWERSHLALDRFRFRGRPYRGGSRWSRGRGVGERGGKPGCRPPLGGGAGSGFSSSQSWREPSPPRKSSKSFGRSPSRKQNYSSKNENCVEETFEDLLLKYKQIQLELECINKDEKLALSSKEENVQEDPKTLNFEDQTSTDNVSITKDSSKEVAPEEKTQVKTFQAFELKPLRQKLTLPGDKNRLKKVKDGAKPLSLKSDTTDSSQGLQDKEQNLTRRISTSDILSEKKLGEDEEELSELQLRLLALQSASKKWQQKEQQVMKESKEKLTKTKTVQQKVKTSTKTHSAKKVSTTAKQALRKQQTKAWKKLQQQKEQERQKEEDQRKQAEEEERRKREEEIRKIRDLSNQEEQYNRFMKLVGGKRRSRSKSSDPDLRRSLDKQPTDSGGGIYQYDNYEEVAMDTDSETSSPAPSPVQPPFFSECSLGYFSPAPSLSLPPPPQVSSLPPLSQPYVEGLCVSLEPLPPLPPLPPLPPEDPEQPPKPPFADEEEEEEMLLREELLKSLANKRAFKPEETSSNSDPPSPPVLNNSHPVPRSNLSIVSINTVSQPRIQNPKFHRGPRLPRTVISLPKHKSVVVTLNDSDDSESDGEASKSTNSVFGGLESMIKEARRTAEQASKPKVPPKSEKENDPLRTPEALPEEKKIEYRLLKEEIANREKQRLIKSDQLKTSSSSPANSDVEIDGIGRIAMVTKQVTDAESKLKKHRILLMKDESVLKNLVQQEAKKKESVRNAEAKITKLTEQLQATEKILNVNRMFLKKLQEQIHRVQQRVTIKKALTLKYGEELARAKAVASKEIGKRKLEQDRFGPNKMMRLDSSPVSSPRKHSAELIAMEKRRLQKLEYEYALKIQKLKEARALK

T3: FLAG-tagged ZFC3H1 N-terminal region (residues 1-990) (UniProt O60293)
T3 sequence: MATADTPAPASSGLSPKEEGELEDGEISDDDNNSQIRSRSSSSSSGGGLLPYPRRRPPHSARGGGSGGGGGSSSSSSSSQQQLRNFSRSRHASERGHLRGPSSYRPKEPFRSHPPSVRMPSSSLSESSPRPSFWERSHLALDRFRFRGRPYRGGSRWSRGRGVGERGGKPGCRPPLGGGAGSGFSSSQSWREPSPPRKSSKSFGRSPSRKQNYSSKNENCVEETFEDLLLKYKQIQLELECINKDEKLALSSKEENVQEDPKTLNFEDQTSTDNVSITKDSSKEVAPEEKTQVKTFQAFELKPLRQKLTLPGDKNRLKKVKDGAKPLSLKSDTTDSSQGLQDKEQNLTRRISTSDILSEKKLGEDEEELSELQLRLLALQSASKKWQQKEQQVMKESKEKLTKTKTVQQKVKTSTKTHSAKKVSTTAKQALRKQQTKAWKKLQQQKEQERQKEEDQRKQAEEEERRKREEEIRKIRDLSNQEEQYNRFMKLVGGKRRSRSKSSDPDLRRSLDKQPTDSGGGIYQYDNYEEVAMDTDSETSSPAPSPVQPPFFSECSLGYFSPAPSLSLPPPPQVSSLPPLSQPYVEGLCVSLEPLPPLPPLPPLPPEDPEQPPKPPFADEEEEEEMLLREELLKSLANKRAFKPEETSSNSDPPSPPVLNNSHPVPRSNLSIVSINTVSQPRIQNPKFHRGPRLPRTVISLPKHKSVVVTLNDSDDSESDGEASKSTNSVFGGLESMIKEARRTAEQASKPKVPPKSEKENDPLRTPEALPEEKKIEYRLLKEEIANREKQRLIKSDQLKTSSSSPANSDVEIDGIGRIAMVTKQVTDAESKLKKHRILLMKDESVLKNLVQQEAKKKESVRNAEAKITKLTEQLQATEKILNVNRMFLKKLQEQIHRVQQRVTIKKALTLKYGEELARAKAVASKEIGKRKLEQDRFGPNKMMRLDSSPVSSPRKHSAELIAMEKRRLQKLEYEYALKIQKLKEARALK


Tests used:
Experiment in all cases: co-IP
[1] = molecular target: T1, FLAG-tagged ZFC3H1 residues 600-990
[2] = molecular target: T2, FLAG-tagged ZFC3H1 N-term SLiM mutant (N-term ΔSLiM)
[3] = molecular target: T3, FLAG-tagged ZFC3H1 N-terminal region (residues 1-990)
[4] = molecular target: FLAG-tagged ZFC3H1, full length (UniProt O60293)
[5] = molecular target: FLAG-tagged ZFC3H1, full length (UniProt O60293); remark: listed apart in the source

binding [1] | binding [2] | binding [3] | binding [4] | binding [5] | Binder
binds | binds | binds | – | – | PABPN1 (protein, UniProt Q86U42 1-306) MAAAAAAAAAAGAAGGRGSGPGRRRHLVPGAGGEAGEGAPGGAGDYGNGLESEELEPEELLLEPEPEPEPEEEPPRPRAPPGAPGPGPGSGAPGSQEEEEEPGLVEGDPGDGAIEDPELEAIKARVREMEEEAEKLKELQNEVEKQMNMSPPPGNAGPVIMSIEEKMEADARSIYVGNVDYGATAEELEAHFHGCGSVNRVTILCDKFSGHPKGFAYIEFSDKESVRTSLALDESLFRGRQIKVIPKRTNRPGISTTDRGFPRARYRARTTNYNSSRSRFYSGFNSRPRGRVYRGRARATSWYSPY
– | no binding | binds | binds | binds | ARS2 (protein, UniProt Q9BXP5 1-876) MGDSDDEYDRRRRDKFRRERSDYDRSRERDERRRGDDWNDREWDRGRERRSRGEYRDYDRNRRERFSPPRHELSPPQKRMRRDWDEHSSDPYHSGYEMPYAGGGGGPTYGPPQPWGHPDVHIMQHHVLPIQARLGSIAEIDLGVPPPVMKTFKEFLLSLDDSVDETEAVKRYNDYKLDFRRQQMQDFFLAHKDEEWFRSKYHPDEVGKRRQEARGALQNRLRVFLSLMETGWFDNLLLDIDKADAIVKMLDAAVIKMEGGTENDLRILEQEEEEEQAGKPGEPSKKEEGRAGAGLGDGERKTNDKDEKKEDGKQAENDSSNDDKTKKSEGDGDKEEKKEDSEKEAKKSSKKRNRKHSGDDSFDEGSVSESESESESGQAEEEKEEAEEALKEKEKPKEEEWEKPKDAAGLECKPRPLHKTCSLFMRNIAPNISRAEIISLCKRYPGFMRVALSEPQPERRFFRRGWVTFDRSVNIKEICWNLQNIRLRECELSPGVNRDLTRRVRNINGITQHKQIVRNDIKLAAKLIHTLDDRTQLWASEPGTPPLPTSLPSQNPILKNITDYLIEEVSAEEEELLGSSGGAPPEEPPKEGNPAEINVERDEKLIKVLDKLLLYLRIVHSLDYYNTCEYPNEDEMPNRCGIIHVRGPMPPNRISHGEVLEWQKTFEEKLTPLLSVRESLSEEEAQKMGRKDPEQEVEKFVTSNTQELGKDKWLCPLSGKKFKGPEFVRKHIFNKHAEKIEEVKKEVAFFNNFLTDAKRPALPEIKPAQPPGPAQILPPGLTPGLPYPHQTPQGLMPYGQPRPPILGYGAGAVRPAVPTGGPPYPHAPYGAGRGNYDAFRGQGGYPGKPRNRMVRGDPRAIVEYRDLDAPDDVDFF
